The subject of this data set is TFAM (WT) + POLRMT + TFB2M. Description: DNase I footprinting. As to conditions: POLRMT/TFB2M 1 µM each, WT reference for CTΔ26; Footprinting: 10 mM HEPES pH 7.5, 10 mM MgCl2, 100 mM NaCl, 1 mM TCEP, 0.1 mg/mL BSA, 32°C; recombinant protein; label: 5'-32P on HSP1 or LSP template strand; probe letters rebuilt from the primers and the genome.

For at least one entry, the source does not settle the construct or the ends of the probe. At least one verdict was read from the data and is not stated in words by the source.

In the case of “ATTGCTTTGAGGAGGTAAGCTACATAAACTGTGGGGGGTGTCTTTGGGGTTTGGTTGGTTCGGGGTATGGGGTTAGCAGCGGTGTGTGTGTGCTGGGTAGGATGGGCGGGGGTTGTATTGATGAGATTAGTAGTATGGGAGTGGGAGGGGAAAATAATGTGTTAGTTGGGGGGTGACTGTTAAAAGTGCATACCGCCAAAAGATAAAATTTGAAATCTGGTTAGGCTGGTGTT (double strand) [dual promoter template (DPT-WT)]”, the binding result is “binds”.
